The shares of active, inactive and inconclusive entries below differ from those in the screen. Potencies of inconclusive entries are doubtful fits and often do not repeat. Calls of active or inactive are those of the source. The call rests on the fitted dose curve; in most records, active means well fitted cell-killing curve with a large enough effect; inconclusive means small, poorly fitted or top-dose-only effect, or effect the other way; inactive means no such curve, though single readings can be large or run the other way.
tested on: Tov-21-G; assay: Confirmatory qHTS for gynecologic anti-cancer compounds from libraries of approved drugs and bioactive compounds; conditions: gynecologic cancer cell panel viability, ATPlite luminescence, 48 h; series mostly up to 57.7 µM; activity change, negative = viability loss: at the top concentration; further: nearly all actives have a fitted effect of over 55% in size
In short: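 Cells (1,000/well) plated 16 h, then exposed 48 h at 37 °C to 11 concentrations (1:3) from 57.5 uM to 0.977 nM. Viability by ATPlite luminescence after 15 min; IC50 derived, with HEK 293T used for selectivity index.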
On the % scale 0 is the no-effect control and ±100 the full control effect; potency means the concentration at half of the fitted maximal effect.

| SMILES | Potency | activity change, negative = viability loss |
| --- | --- | --- |
| O=c1[nH]c(=O)n([C@H]2C[C@H](O)[C@@H](CO)O2)cc1F | inconclusive: 0.0069 µM [rising, full curve, poor fit] | – |
| COc1ccc2c(c1OC)C(=O)O[C@@H]2[C@H]1c2c(cc3c(c2OC)OCO3)CCN1C | inconclusive: 0.217 µM [rising, partial curve] | – |
| O=C(NCC(O)CO)c1ccncc1Nc1ccc(I)cc1F (stereo not drawn) | inconclusive: 21.7 µM [cytotoxic, partial curve, poor fit] | – |
| Nc1cccc(-c2cc3c(Oc4cccc(O)c4)ncnc3[nH]2)c1 | inconclusive: 9.68 µM [cytotoxic, partial curve, poor fit] | – |
| COc1cccc2cc(-c3nc(C4CCC(C(=O)O)CC4)n4ncnc(N)c34)[nH]c12 (stereo not drawn) | inconclusive: 3.43 µM [cytotoxic, full curve, poor fit] | – |
| CC[C@H](CC#N)OC(=O)N[C@@H](C)c1cccc(NC(=O)Nc2ccc(-c3cnco3)c(OC)c2)c1 | inconclusive: 9.68 µM [cytotoxic, full curve, poor fit] | – |
| Cc1ccc2nc(N)[nH]c(=O)c2c1Sc1ccncc1 | – | inactive: -31.5% |
| O=c1cc(CN2CCOCC2)occ1OCCCCCSc1ccnc2cc(C(F)(F)F)ccc12 | – | inactive: -17.4% |
| CC(Oc1ccc2[nH]nc(/C=C/c3cnn(CCO)c3)c2c1)c1c(Cl)cncc1Cl (stereo not drawn) | active: 6.11 µM | – |
| CC[C@H](Nc1ncnc2nc[nH]c12)c1nc2cccc(F)c2c(=O)n1-c1ccccc1 | inconclusive: 0.0041 µM [rising, full curve, poor fit] | – |
| Cn1cc(-c2[nH]c3cc(NC(=O)[C@H](N)C4CCCCC4)cc4c3c2C=NNC4=O)cn1 | inconclusive: 4.32 µM [cytotoxic, full curve, poor fit] | – |
| CNCc1ccc(-c2[nH]c3cc(F)cc4c3c2CCNC4=O)cc1 | inconclusive: 27.3 µM [cytotoxic, single point] | – |
| CCOc1ccc(Nc2nc(-c3c(C)nc4ccccn34)cs2)cc1 | inconclusive: 0.0485 µM [cytotoxic, full curve, poor fit] | – |
| COc1ccc(-c2ccc3c(N4CCOCC4C)nc(N4CCOCC4C)nc3n2)cc1CO (stereo not drawn) | – | inactive: -33.8% |
| O=c1[nH]c(=O)n([C@H]2C[C@H](O)[C@@H](CO)O2)cc1C(F)(F)F | inconclusive: 0.0485 µM [rising, partial curve] | – |
| COc1ccccc1N1CCN(CC(O)COc2cccc3ccccc23)CC1 (stereo not drawn) | – | inactive: 18.9% |
| Nc1ccc(-c2ccc3ncc4ccc(=O)n(-c5cccc(C(F)(F)F)c5)c4c3c2)cn1 | active: 3.43 µM | – |
| NC(=O)c1cccc2cn(-c3ccc([C@@H]4CCCNC4)cc3)nc12 | inconclusive: 0.0172 µM [rising, full curve] | – |
| COc1cc2c(Nc3ccc(NC(=O)c4ccccc4)cc3)ncnc2cc1OCCCN1CCOCC1 | active: 19.3 µM | – |
| CC(C)Oc1ccc(C(=O)NC(CNC(=O)CN(C)C)Cc2ccc(-c3cn4cccc(C(C)O)c4n3)cc2)cc1Cl (stereo not drawn) | inconclusive: 15.3 µM [cytotoxic, single point] | – |
| CCCCN(CCCC)C(=O)CN1C[C@H](c2ccc3c(c2)OCO3)[C@@H](C(=O)O)[C@@H]1c1ccc(OC)cc1 | inconclusive: 3.06 µM [cytotoxic, full curve, poor fit] | – |
| O=c1c2ccccc2nc2n1CCc1c-2[nH]c2ccccc12 | inconclusive: 0.137 µM [rising, full curve, poor fit] | – |
| COc1cc2c(cc1-c1c(C)noc1C)ncc1[nH]c(=O)n(C(C)c3ccccn3)c12 (stereo not drawn) | active: 6.85 µM | – |
| CCCC(=O)O[C@]1(C(=O)CCl)[C@@H](C)C[C@H]2[C@@H]3CCC4=CC(=O)C=C[C@]4(C)[C@@]3(F)C(=O)C[C@@]21C | inconclusive: 24.3 µM [cytotoxic, single point] | – |
| COc1ccc(OC)c(-c2nnc3ccc(-c4ccc(OC)c(O[C@@H]5CCOC5)c4)nn23)c1 | – | inactive: -39.4% |
| Cc1ccccc1C(OCCN(C)C)c1ccccc1 (stereo not drawn) | inconclusive: 0.243 µM [rising, partial curve, poor fit] | – |
| Cc1ccc(-n2[nH]c(C)c(N=Nc3cccc(-c4cccc(C(=O)O)c4)c3O)c2=O)cc1C | – | inactive: 16.8% |
| Oc1cn2c(n1)Nc1ccc(Cl)c(Cl)c1C2 | inconclusive: 0.0943 µM [rising, full curve, poor fit] | – |

2 consecutive records out of the list so far, quoted:

| SMILES | Potency | activity change, negative = viability loss |
| --- | --- | --- |
| COc1cc2c(Nc3ccc(NC(=O)c4ccccc4)cc3)ncnc2cc1OCCCN1CCOCC1 | active: 19.3 µM | – |
| CC(C)Oc1ccc(C(=O)NC(CNC(=O)CN(C)C)Cc2ccc(-c3cn4cccc(C(C)O)c4n3)cc2)cc1Cl (stereo not drawn) | inconclusive: 15.3 µM [cytotoxic, single point] | – |
